The text below walks through data of article doi:10.1101/2024.08.19.608573.

Results are given in words; binding and its absence hold for the method and conditions named. Binding seen in cells or lysates may run through a third protein. Binding can be weak; no strength is given. Tags and fused reporters may be left off the sequences shown.

This assay addresses T1, Cdca9-Flag (zebrafish) (UniProt P86347).
T1 sequence: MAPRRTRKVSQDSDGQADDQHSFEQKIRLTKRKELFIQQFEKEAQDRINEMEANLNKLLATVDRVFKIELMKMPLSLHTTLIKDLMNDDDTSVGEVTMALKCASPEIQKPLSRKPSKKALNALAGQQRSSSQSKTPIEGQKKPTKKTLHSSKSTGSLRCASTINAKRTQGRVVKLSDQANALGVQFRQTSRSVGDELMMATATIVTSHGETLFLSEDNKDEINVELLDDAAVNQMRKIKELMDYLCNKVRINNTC
Description: co-IP.

For Birc5b, the binding result was “binds”.
In the case of Birc5b-GFP (zebrafish), the binding result was “binds”.
